# This is one part of the list. Further columns of the screen follow, without active or inactive calls. Most of these compounds were active or inconclusive in the main read-out, so they are no random draw. The note in brackets gives the kind of curve behind each potency; many fits are weak.
# Assay: qHTS Assay to Find Inhibitors of Chronic Active B-Cell Receptor Signaling
# Conditions: ABC-DLBCL IkBa-CBG/CBR reporter, luminescence ratio (green luciferase fused to IkBa over red control in TMD8 lymphoma cells), 4 h
# How it was run: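 Cell line TMD8 (human ABC DLBCL), stably expressing tet-inducible CBG68-IkBa fusion and CBR; IMDM/0.5% FBS; cpd up to 46 uM; dox induction, 4 h, 37C/5% CO2; dual luminescence; green/red ratio; MG132 control.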
# [1] = measured here: CBR red luminescence, cell number
# [2] = measured here: IkBa-CBG green luminescence
smiles,measurement,setting,value
Cc1nn(C)c(Sc2ccccc2N)c1[N+](=O)[O-],AC50,[1],"12.6 µM [rising, partial curve, poor fit]"
same,AC50,[2],"28.2 µM [falling, single point]"
Cc1nc(NC(=O)c2ccc3c(c2)OCCO3)ccc1Br,AC50,[1],"12.6 µM [falling, partial curve]"
CCOc1cc(CNCC(C)C)cc(Cl)c1OCc1ccccc1,AC50,[1],"14.1 µM [falling, single point]"
CC(C)C/C=C1\CCc2c([nH]c3ccccc23)C1=O,AC50,[1],"11.2 µM [falling, single point]"
CC12CN3CCN(CC(C3)/C1=N/NC(=O)Nc1ccccc1)C2,AC50,[1],"0.00461 µM [rising, full curve, poor fit]"
O=[N+]([O-])/C=C/c1cn(Cc2ccccc2)c2ccccc12,AC50,[1],"31.6 µM [falling, partial curve, poor fit]"
Cc1cc(C(=O)CSc2nc(N)cc(N)n2)c(C)n1-c1cccc(F)c1,AC50,[1],"6.51 µM [rising, partial curve, poor fit]"
Cc1nc(CNS(=O)(=O)c2cc([N+](=O)[O-])ccc2C)cs1,AC50,[1],"31.6 µM [rising, single point]"
CC1(C)Cc2nc3nc(SCC(=O)NCc4ccccc4)n(-c4ccccc4)c(=O)c3cc2CO1,AC50,[1],"35.5 µM [falling, single point]"
CC(C)CN(C(=O)c1ccc(C(F)(F)F)cc1)c1c(N)n(CC(C)C)c(=O)[nH]c1=O,AC50,[1],"0.631 µM [falling, partial curve, poor fit]"
COCc1c(C(=O)N/N=C/c2ccncc2)nnn1-c1nonc1N,AC50,[1],"28.2 µM [rising, single point]"
CCOC(=O)CN(C(=O)CSc1nnc2c(n1)[nH]c1ccccc12)c1ccccc1,AC50,[1],"0.501 µM [falling, partial curve, poor fit]"
CCOC(=O)Cn1nc(C)c(NC(=O)c2ccc(Br)o2)c1C,AC50,[1],"11.2 µM [rising, partial curve, poor fit]"
COc1ccc(OC)c2sc(NC(=O)c3ccc(Br)s3)nc12,AC50,[1],"1.3 µM [falling, partial curve, poor fit]"
O=c1c2ccccc2nc(SCc2cn3ccsc3n2)n1-c1ccccc1F,AC50,[1],"0.0326 µM [rising, full curve, poor fit]"
CC(C)NC(=O)c1ccccc1NC(=O)CS(=O)(=O)Cc1ccccc1,AC50,[1],"18.4 µM [falling, single point]"
CCOC(=O)c1cccc(S(=O)(=O)N(CCO)Cc2cc3cc(OC)ccc3[nH]c2=O)c1,AC50,[1],"7.31 µM [falling, single point]"
Cc1ccc(-n2nnc3c(SCC(=O)NCC4CCCO4)ncnc32)cc1 (centres undefined),AC50,[1],"4.61 µM [falling, partial curve]"
Nc1nc(SCC(=O)Nc2ccccc2Sc2ccccc2)n[nH]1,AC50,[1],"1.64 µM [falling, partial curve, poor fit]"
O=C(/C=C/c1ccc(F)cc1)Nc1cccc(S(=O)(=O)Nc2cccc(C(F)(F)F)c2)c1,AC50,[1],"29.1 µM [rising, single point]"
C(=N\N1CCN(c2ccccn2)CC1)/C1=C(N2CCOCC2)C(=C/c2ccccc2)/CC1,AC50,[1],"35.5 µM [rising, single point]"
Cc1ccc(C)c(N2CCN(C(=S)Nc3ccc4nc(N5CCN(C)CC5)cc(C)c4c3)CC2)c1,AC50,[1],"12.6 µM [falling, single point]"
O=C(N[C@H]1C/C=C\C[C@@H](CC(=O)N(CCO)Cc2ccccc2)C(=O)NC[C@H](c2ccccc2)OC1=O)OCC1c2ccccc2-c2ccccc21,AC50,[1],"20.6 µM [falling, single point]"
COCCn1c(C)cc(C(=O)COC(=O)CNC(=O)c2ccccc2)c1C,AC50,[1],"25.9 µM [rising, single point]"
O=C(CSc1nc2ccccc2c(=O)n1-c1ccc(OC(F)F)cc1)NC1CC1,AC50,[1],"20.6 µM [falling, single point]"
Cc1ccc(N2C(=O)CC(c3c[nH]c4ccccc34)C2=O)cc1 (centres undefined),AC50,[1],"0.501 µM [falling, full curve, poor fit]"
CC(C)COc1ccc(C(=O)Nc2ncn[nH]2)cc1,AC50,[1],"17.8 µM [falling, partial curve, poor fit]"
COc1cccc(CNC(=O)CCC(=O)n2ncc3cc(C)ccc32)c1OC,AC50,[1],"2.82 µM [rising, partial curve, poor fit]"
O=C(CN1C(=O)C2CCCCC2C1=O)Nc1ccc(S(=O)(=O)Nc2ncccn2)cc1 (centres undefined),AC50,[1],"0.708 µM [falling, full curve, poor fit]"
O=C(Nc1ccccc1O)c1ccc(NS(=O)(=O)c2cccc3cccnc23)cc1,AC50,[1],"0.0891 µM [falling, full curve, poor fit]"
same,AC50,[2],"15.8 µM [falling, partial curve, poor fit]"
CCc1cccc(CC)c1N(COC)C(=O)Cn1c(CO)nc2ccccc21,AC50,[1],"20 µM [falling, partial curve, poor fit]"
COc1ccc(NC(=O)C2CCN(C(=O)Nc3ccccc3)CC2)cc1S(=O)(=O)N(C)C,AC50,[1],"2.31 µM [rising, full curve, poor fit]"
Cc1noc(C)c1COC(=O)c1cccc(S(=O)(=O)N2CCOCC2)c1,AC50,[1],"29.1 µM [rising, single point]"
Cc1ccc(NS(=O)(=O)c2cc(C(=O)NCCSC3CCCCC3)ccc2C)cc1,AC50,[1],"29.1 µM [falling, single point]"
CN(C)C(=O)C1C2NC(=S)N(c3ccc(Cl)cc3)C1(C)Oc1ccc(Cl)cc12 (centres undefined),AC50,[1],"35.5 µM [falling, single point]"
c1ccc(-c2cn3nc(-c4ccccc4)cnc3n2)cc1,AC50,[1],"2.06 µM [falling, partial curve]"
c1ccc(CCn2nnnc2C(c2cccnc2)N2CCN(c3nc4ccccc4s3)CC2)cc1 (centres undefined),AC50,[1],"14.1 µM [falling, partial curve, poor fit]"
Cc1cccc(NC(=O)CSc2nc(C3CC3)nc3ccccc23)c1,AC50,[1],"2.24 µM [falling, partial curve]"
Cc1nnc(SCC(=O)NCc2ccco2)[nH]c1=O,AC50,[1],"29.1 µM [falling, single point]"
C[C@H](CO)N1C[C@H](C)[C@@H](CN(C)Cc2ccccc2)Oc2c(NC(=O)Cc3ccccc3)cccc2C1=O,AC50,[1],"16.4 µM [falling, partial curve]"
CCNC(=O)NC(=O)C(C)Sc1ncc(C(F)(F)F)cc1Cl (centres undefined),AC50,[1],"14.1 µM [rising, partial curve, poor fit]"
COc1ccc(/C=N/OCC(=O)N(Cc2ccccc2)c2ccccc2C(=O)O)cc1,AC50,[2],"18.4 µM [rising, partial curve, poor fit]"
O=[N+]([O-])c1ccc(/C=C/c2ccncc2)cc1,AC50,[1],"10 µM [rising, partial curve]"
Cc1ccc(C(=O)Nc2ccccc2N2CCCC2)cc1,AC50,[1],"31.6 µM [rising, single point]"
COc1ccccc1-c1cc(C(=O)Nc2cc(C)n(Cc3ccc(Cl)cc3)n2)no1,AC50,[1],"0.501 µM [falling, full curve, poor fit]"
c1ccc(CCN=C2CCCc3c2[nH]c2ccccc32)cc1,AC50,[1],"35.5 µM [falling, single point]"
Cc1ccc(-n2ncc3c(NCCCn4ccnc4)ncnc32)cc1C,AC50,[1],"35.5 µM [falling, single point]"
Cc1cc(N(CCO)CCO)ccc1N=Nc1cc(F)ccc1F,AC50,[1],"10 µM [rising, partial curve, poor fit]"
CCCCCCCc1ccc(-c2ccc(O)cc2)nc1,AC50,[1],"17.8 µM [rising, single point]"
CNC(=S)N1CCN(c2ccc([N+](=O)[O-])cc2)CC1,AC50,[1],"10 µM [rising, partial curve, poor fit]"
Cc1ccc(Cl)cc1NC1=C/C(=N\S(=O)(=O)c2cccs2)c2ccccc2C1=O,AC50,[1],"4.11 µM [falling, full curve]"
Cc1cc2c(C)cc(=O)[nH]c2cc1NC(=O)CCl,AC50,[1],"3.16 µM [rising, single point]"
CCOC(=O)C1=C(CP(=O)(c2ccccc2)c2ccccc2)NC(=O)NC1c1ccc(Cl)cc1 (centres undefined),AC50,[1],"9.2 µM [falling, partial curve]"
COc1ccccc1NC(=O)CSc1nc2sc3c(c2c(=O)n1-c1ccccc1)CCN(C)C3,AC50,[1],"5.62 µM [falling, full curve]"
COc1cccc(C(=O)Nc2nc3c(s2)CN(C)CC3)c1,AC50,[1],"3.16 µM [falling, partial curve, poor fit]"
COc1ccc(CNC(=O)C(=O)NCC(c2ccco2)S(=O)(=O)c2ccc(Cl)cc2)cc1 (centres undefined),AC50,[1],"3.98 µM [rising, full curve, poor fit]"
O=C(O)C1CC=CCC1C(=O)N1CC=C(c2ccccc2)CC1 (centres undefined),AC50,[1],"22.4 µM [falling, single point]"
Cc1occc1C(=O)Nc1cc(S(=O)(=O)N2CCOCC2)ccc1OC(C)C,AC50,[1],"20.6 µM [rising, partial curve]"
same,AC50,[2],"20.6 µM [falling, partial curve, poor fit]"
CSc1nc2c(cc1C#N)CCCCC2,AC50,[1],"32.6 µM [rising, partial curve, poor fit]"
O=C(Cc1n[nH]c(=O)[nH]c1=O)N/N=C/CCc1ccccc1,AC50,[1],"1.41 µM [falling, partial curve, poor fit]"
CSc1nncc(-c2ccc(F)c(F)c2)n1,AC50,[1],"1 µM [falling, partial curve, poor fit]"

# Laid out differently: entries from further up
smiles | measurement | setting | value
CCc1cccc(CC)c1N(COC)C(=O)Cn1c(CO)nc2ccccc21 | AC50 | [1] | 20 µM [falling, partial curve, poor fit]
COc1ccc(NC(=O)C2CCN(C(=O)Nc3ccccc3)CC2)cc1S(=O)(=O)N(C)C | AC50 | [1] | 2.31 µM [rising, full curve, poor fit]
Cc1noc(C)c1COC(=O)c1cccc(S(=O)(=O)N2CCOCC2)c1 | AC50 | [1] | 29.1 µM [rising, single point]
Cc1ccc(NS(=O)(=O)c2cc(C(=O)NCCSC3CCCCC3)ccc2C)cc1 | AC50 | [1] | 29.1 µM [falling, single point]
